In publication PMC4859800:
Results are given in words; binding and its absence hold for the method and conditions named.

By UniProt entry, the sequences of proteins in these tests, tags left out. Where a name states a change or a piece, a line headed by the entry shows the natural chain unless it says otherwise.
UniProt P40007: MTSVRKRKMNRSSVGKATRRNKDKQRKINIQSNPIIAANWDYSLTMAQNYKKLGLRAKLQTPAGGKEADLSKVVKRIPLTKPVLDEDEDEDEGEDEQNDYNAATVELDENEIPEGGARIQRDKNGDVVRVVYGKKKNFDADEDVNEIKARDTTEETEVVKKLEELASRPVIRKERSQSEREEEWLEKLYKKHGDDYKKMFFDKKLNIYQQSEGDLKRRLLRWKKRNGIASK

What was measured:
Assay in all cases: two-hybrid; array-based Y2H matrix; preys in pACT2 (PJ69-4a) mated against 23 baits in pAS2-1 (PJ69-4α); growth on SD-Leu-Trp-His + 6 mM 3-AT greater than the negative control after 2 weeks
[1] = molecular target: T1, Ebp2 (Y2H bait, pAS2-1) (S. cerevisiae) (UniProt P36049)
T1 sequence: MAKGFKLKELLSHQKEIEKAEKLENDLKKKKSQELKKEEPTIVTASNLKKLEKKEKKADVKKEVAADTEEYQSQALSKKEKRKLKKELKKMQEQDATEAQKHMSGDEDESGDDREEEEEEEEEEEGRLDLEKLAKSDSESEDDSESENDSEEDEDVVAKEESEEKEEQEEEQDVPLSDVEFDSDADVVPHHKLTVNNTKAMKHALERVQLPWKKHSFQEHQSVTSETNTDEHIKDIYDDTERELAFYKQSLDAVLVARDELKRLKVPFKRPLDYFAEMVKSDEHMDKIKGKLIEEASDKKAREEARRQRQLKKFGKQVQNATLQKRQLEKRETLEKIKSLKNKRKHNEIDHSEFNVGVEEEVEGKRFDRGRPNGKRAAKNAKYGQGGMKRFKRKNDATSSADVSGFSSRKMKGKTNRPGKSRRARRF

[2] = molecular target: T2, Cgr1 (Y2H bait, pAS2-1) (S. cerevisiae) (UniProt P53188)
T2 sequence: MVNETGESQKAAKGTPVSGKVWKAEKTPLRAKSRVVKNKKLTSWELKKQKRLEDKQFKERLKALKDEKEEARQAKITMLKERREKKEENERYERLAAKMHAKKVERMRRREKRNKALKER

[3] = molecular target: T3, Spb4 (Y2H bait, pAS2-1) (S. cerevisiae) (UniProt P25808)
T3 sequence: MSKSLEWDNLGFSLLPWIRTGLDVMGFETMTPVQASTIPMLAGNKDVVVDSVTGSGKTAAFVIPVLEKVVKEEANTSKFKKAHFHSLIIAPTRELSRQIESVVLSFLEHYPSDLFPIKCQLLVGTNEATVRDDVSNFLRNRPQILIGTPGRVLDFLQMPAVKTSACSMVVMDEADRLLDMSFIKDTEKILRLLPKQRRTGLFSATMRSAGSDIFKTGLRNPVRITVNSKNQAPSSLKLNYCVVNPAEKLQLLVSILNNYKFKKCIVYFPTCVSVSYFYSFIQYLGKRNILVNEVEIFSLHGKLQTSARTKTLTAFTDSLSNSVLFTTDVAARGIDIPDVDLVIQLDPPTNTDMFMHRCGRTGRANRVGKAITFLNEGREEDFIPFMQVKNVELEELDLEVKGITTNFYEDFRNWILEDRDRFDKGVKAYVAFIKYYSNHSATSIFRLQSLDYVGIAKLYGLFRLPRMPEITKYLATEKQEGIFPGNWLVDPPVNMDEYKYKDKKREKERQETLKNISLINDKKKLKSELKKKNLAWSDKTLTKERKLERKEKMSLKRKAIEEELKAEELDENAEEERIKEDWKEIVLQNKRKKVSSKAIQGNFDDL

[4] = molecular target: T4, Nsr1 (Y2H bait, pAS2-1) (S. cerevisiae) (UniProt P27476)
T4 sequence: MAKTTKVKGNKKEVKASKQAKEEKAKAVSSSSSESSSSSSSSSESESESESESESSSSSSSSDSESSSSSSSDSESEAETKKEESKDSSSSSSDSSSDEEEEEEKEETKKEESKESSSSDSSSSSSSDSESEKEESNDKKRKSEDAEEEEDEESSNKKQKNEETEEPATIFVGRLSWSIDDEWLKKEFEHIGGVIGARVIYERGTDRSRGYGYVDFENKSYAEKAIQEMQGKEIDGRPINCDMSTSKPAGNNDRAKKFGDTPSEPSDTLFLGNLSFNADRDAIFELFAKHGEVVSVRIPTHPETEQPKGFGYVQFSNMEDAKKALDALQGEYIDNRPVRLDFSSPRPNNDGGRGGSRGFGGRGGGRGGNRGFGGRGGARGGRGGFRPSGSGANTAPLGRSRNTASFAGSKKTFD

[5] = molecular target: Nop16 (Y2H bait, pAS2-1) (S. cerevisiae) (UniProt P40007)
[6] = molecular target: T5, Nop4 (Y2H bait, pAS2-1) (S. cerevisiae) (UniProt P37838)
T5 sequence: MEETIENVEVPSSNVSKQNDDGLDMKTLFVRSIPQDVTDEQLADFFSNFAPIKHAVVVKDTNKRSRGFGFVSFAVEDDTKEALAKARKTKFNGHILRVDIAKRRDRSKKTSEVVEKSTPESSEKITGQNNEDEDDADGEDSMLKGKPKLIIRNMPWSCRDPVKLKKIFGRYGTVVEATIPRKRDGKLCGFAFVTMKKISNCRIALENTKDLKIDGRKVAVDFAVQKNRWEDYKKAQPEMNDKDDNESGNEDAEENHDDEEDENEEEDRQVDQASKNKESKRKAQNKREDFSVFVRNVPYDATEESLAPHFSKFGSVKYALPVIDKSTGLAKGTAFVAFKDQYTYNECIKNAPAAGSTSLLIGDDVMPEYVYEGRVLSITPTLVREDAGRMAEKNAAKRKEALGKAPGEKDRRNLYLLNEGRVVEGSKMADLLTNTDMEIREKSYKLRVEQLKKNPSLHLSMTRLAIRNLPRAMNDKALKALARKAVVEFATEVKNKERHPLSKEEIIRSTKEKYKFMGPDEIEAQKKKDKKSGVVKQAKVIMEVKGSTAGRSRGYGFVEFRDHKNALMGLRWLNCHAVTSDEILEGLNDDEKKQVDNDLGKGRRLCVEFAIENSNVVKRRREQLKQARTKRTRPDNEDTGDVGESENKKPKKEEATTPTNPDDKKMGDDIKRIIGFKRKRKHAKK

Measured: binding

B1: Nop4 RRM 1–2 (Y2H prey, pACT2) (domain or fragment, UniProt P37838 1-250)
chain: MEETIENVEVPSSNVSKQNDDGLDMKTLFVRSIPQDVTDEQLADFFSNFAPIKHAVVVKDTNKRSRGFGFVSFAVEDDTKEALAKARKTKFNGHILRVDIAKRRDRSKKTSEVVEKSTPESSEKITGQNNEDEDDADGEDSMLKGKPKLIIRNMPWSCRDPVKLKKIFGRYGTVVEATIPRKRDGKLCGFAFVTMKKISNCRIALENTKDLKIDGRKVAVDFAVQKNRWEDYKKAQPEMNDKDDNESGNE
no binding: all assays above
